These results are taken from PMC6345774, “Kinetic and thermodynamic effects of phosphorylation on p53 binding to MDM2” (Scientific Reports, 2019).

The chains behind the UniProt entries cited, without tags or fusion partners. Residues count along the entry.
UniProt Q00987, residues 2-125: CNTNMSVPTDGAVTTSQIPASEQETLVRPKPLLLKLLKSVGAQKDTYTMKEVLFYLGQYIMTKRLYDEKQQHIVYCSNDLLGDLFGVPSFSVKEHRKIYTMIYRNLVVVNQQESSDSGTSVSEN

Assay [1] deals with Ac-ETFe…-NH2 (P53-E20) (human). In words: 1D 1H-NMR line width; isolated peptide 1.5–2 mM, 10 °C, pH 4.5 (50 mM acetate buffer); line width as expected from the molecular weight; both purified.
For assay [2], the target named is Ac-EeFd…-NH2 (P53-E18-D20) (human). The description is as above.
The target of assay [3] is Ac-Ed…-NH2 (P53-D18) (human). Described as above.
Assay [4] has as its target Ac-EeFdDLWeeLPEN-NH2 (P53-E18-D20-E24-E25) (human). Described as above.
The target of assay [5] is T1, human MDM2 (residues 2–125) (human, UniProt Q00987 2-125).
T1 construct: MDM2 (murine double minute 2), human, N-terminal domain, residues 2-125; no tag is named; also called N-terminal domain of MDM2
In words: condition: peptide 0.125 μM, MDM2 typically 1 μM to 3 μM; stopped-flow fluorescence; pseudo-first order, peptide 0.125 μM final, MDM2 in excess (typically 1 μM to 3 μM); Trp23 fluorescence, excitation 280 nm, 315 nm cut-off; 15 °C; 50 mM Tris-HCl pH 8.0, 250 mM NaCl, 0.5 mM TCEP; Kd as koff/kon assuming a two-state reaction; both purified.

Assay [6] has as its target Ac-Ee…-NH2 (P53-E18) (human). In words: 1D 1H-NMR line width; isolated peptide 1.5–2 mM, 10 °C, pH 4.5 (50 mM acetate buffer); line width as expected from the molecular weight; both purified.
Assay [7] addresses Ac-EeFe…-NH2 (P53-E18-E20) (human). The description is as above.

These are yes or no findings as the source states them, for the method shown.

B1: Ac-ETFe…-NH2 (P53-E20) (peptide)
peptide: ETFEDLWKLLPEN
modifications: N-terminal acetyl; C-terminal amide
As to B1, the binding result in assay [1] is recorded as “no binding (tested: 1.5–2 mM)”.

B2: Ac-EeFd…-NH2 (P53-E18-D20) (peptide)
peptide: EEFDDLWKLLPEN
modifications: N-terminal acetyl; C-terminal amide
As to B2, in assay [2], the binding result was “no binding (tested: 1.5–2 mM)”.

B3: Ac-Ed…-NH2 (P53-D18) (peptide)
peptide: EDFSDLWKLLPEN
modifications: N-terminal acetyl; C-terminal amide
Take B3: the binding entry in assay [3] is reported as “no binding (tested: 1.5–2 mM)”.

B4: Ac-EeFdDLWeeLPEN-NH2 (P53-E18-D20-E24-E25) (peptide)
peptide: EEFDDLWEELPEN
modifications: N-terminal acetyl; C-terminal amide
Turning to B4, the binding result in assay [4] is “no binding (tested: 1.5–2 mM)”; in assay [5] it was “no binding”.

B5: Ac-Ee…-NH2 (P53-E18) (peptide)
peptide: EEFSDLWKLLPEN
modifications: N-terminal acetyl; C-terminal amide
Consider B5, for which the binding result in assay [6] is given as “no binding (tested: 1.5–2 mM)”.

B6: Ac-EeFe…-NH2 (P53-E18-E20) (peptide)
peptide: EEFEDLWKLLPEN
modifications: N-terminal acetyl; C-terminal amide
Turning to B6, in assay [7], the binding result is given as “no binding (tested: 1.5–2 mM)”.
